Results reported in PMC9834055.
Results are given in words; binding and its absence hold for the method and conditions named. Some results given as binding are weak or reduced against the parent protein; the word gives no strength. Where a sequence is shown, tags or fusion partners need not be part of it.

Amino acid sequences for entries named in this document (tags omitted).
UniProt P25156: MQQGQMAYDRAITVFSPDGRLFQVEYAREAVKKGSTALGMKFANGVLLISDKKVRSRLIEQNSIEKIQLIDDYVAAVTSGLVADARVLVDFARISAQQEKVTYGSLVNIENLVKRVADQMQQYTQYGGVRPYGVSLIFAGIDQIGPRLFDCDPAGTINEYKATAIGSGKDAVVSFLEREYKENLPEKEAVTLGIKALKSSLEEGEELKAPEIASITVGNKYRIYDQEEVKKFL

Target: T1, 20S proteasome β subunit, His-tagged (UniProt P28061)
T1 sequence: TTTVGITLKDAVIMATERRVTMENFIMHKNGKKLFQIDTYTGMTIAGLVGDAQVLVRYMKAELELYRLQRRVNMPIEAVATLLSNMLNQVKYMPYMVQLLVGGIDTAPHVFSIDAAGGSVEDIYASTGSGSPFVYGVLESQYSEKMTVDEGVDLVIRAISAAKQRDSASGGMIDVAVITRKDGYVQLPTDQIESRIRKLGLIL
Test: cryo-EM structure; single-particle cryo-EM and cryo-ET of 0.2 μM 20S proteasome on UFG and rough graphene grids; complex purified by the His tag of the β subunit on a nickel column; both purified

binding: binds
Substance: 20S proteasome α subunit (from UniProt P25156 1-233)
